The values below come from PMC10063672.

For this test, the target named is T1, Flag-tagged ADCY9 (adenylyl cyclase 9) expressed in COS-1 cells (UniProt O60503).
T1 sequence: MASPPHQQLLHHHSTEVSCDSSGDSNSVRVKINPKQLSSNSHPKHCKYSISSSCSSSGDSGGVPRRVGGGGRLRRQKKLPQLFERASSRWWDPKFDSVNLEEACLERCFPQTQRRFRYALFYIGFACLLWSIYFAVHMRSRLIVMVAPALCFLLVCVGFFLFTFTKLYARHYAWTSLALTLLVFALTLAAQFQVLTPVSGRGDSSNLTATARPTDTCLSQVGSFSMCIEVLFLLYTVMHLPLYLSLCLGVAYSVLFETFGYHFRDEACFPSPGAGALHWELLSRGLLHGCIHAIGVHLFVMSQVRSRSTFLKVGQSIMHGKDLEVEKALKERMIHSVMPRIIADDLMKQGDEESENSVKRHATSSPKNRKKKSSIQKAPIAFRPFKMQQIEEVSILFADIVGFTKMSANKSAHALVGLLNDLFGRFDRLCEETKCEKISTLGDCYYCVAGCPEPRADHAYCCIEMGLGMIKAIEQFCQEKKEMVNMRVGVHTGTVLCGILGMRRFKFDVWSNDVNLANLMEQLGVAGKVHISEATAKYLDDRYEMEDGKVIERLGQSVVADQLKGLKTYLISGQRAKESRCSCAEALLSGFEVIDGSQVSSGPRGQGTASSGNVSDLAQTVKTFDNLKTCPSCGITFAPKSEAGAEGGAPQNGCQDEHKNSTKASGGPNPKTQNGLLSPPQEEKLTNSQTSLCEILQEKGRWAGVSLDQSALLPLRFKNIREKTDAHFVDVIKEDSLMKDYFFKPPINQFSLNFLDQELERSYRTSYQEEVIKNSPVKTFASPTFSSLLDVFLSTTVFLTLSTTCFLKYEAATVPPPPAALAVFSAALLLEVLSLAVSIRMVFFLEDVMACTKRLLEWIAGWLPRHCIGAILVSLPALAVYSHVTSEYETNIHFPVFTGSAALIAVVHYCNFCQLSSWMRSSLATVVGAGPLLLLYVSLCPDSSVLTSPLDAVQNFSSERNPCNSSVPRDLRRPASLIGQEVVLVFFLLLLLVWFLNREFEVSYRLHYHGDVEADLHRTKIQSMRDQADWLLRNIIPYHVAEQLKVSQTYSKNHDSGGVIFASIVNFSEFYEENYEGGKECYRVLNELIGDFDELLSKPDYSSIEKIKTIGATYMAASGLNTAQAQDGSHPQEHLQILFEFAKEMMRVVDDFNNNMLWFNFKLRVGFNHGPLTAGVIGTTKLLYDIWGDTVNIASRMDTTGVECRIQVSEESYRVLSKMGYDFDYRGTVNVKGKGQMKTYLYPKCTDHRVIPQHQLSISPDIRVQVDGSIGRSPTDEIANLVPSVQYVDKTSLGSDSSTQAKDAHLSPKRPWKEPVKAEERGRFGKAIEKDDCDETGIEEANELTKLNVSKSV
The test is described as follows: co-IP; lysates of Cos-1 cells co-transfected with ADCY9-FLAG and BVES-3xHA; precipitated with anti-Flag antibody and protein A/G agarose beads.

Results are given in words; binding and its absence hold for the method and conditions named. Binding seen in cells or lysates may run through a third protein. Some results given as binding are weak or reduced against the parent protein; the word gives no strength. Where a sequence is shown, tags or fusion partners need not be part of it.

B1: BVES-3xHA (HA-tagged BVES) expressed in COS-1 cells (protein, UniProt Q8NE79 1-360)
chain: MNYTESSPLRESTAIGFTPELESIIPVPSNKTTCENWREIHHLVFHVANICFAVGLVIPTTLHLHMIFLRGMLTLGCTLYIVWATLYRCALDIMIWNSVFLGVNILHLSYLLYKKRPVKIEKELSGMYRRLFEPLRVPPDLFRRLTGQFCMIQTLKKGQTYAAEDKTSVDDRLSILLKGKMKVSYRGHFLHNIYPCAFIDSPEFRSTQMHKGEKFQVTIIADDNCRFLCWSRERLTYFLESEPFLYEIFRYLIGKDITNKLYSLNDPTLNDKKAKKLEHQLSLCTQISMLEMRNSIASSSDSDDGLHQFLRGTSSMSSLHVSSPHQRASAKMKPIEEGAEDDDDVFEPASPNTLKVHQLP
Regarding B1, the binding result was “binds”.
